The target of assay [1] is PABPC1, stress granule (SG) protein, endogenous, from aged mouse brain (mouse) (UniProt P29341). The assay can be described thus: co-immunoprecipitation (anti-PUM2 against control IgG) from pooled fractions 4-7 of old mouse brain, western blot; legend of Figure 7B. (In general: A western blot detects proteins with antibodies after separation by electrophoresis.)
Assay [2] has the same target. The assay is described as follows: co-immunoprecipitation of endogenous PUM2 from heavy RNP fractions 4-7 of aged mouse brain, western blot.

The chains behind the UniProt entries cited, without tags or fusion partners.
UniProt P29341: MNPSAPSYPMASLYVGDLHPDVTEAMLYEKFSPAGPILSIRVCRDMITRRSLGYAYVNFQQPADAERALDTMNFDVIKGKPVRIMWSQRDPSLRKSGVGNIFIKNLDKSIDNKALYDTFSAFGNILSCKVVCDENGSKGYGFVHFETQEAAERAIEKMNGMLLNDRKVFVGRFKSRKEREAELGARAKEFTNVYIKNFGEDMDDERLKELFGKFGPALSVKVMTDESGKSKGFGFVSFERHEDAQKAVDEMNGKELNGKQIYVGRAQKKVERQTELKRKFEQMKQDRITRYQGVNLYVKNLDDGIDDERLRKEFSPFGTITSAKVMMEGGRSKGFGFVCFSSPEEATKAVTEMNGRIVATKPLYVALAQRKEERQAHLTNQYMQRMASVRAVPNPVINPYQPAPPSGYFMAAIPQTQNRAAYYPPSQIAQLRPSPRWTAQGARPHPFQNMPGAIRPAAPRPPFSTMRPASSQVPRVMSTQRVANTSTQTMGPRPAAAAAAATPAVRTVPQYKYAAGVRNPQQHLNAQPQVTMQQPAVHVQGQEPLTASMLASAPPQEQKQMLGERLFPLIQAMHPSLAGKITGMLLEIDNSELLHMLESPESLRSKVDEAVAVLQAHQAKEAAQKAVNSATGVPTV
UniProt Q80U58: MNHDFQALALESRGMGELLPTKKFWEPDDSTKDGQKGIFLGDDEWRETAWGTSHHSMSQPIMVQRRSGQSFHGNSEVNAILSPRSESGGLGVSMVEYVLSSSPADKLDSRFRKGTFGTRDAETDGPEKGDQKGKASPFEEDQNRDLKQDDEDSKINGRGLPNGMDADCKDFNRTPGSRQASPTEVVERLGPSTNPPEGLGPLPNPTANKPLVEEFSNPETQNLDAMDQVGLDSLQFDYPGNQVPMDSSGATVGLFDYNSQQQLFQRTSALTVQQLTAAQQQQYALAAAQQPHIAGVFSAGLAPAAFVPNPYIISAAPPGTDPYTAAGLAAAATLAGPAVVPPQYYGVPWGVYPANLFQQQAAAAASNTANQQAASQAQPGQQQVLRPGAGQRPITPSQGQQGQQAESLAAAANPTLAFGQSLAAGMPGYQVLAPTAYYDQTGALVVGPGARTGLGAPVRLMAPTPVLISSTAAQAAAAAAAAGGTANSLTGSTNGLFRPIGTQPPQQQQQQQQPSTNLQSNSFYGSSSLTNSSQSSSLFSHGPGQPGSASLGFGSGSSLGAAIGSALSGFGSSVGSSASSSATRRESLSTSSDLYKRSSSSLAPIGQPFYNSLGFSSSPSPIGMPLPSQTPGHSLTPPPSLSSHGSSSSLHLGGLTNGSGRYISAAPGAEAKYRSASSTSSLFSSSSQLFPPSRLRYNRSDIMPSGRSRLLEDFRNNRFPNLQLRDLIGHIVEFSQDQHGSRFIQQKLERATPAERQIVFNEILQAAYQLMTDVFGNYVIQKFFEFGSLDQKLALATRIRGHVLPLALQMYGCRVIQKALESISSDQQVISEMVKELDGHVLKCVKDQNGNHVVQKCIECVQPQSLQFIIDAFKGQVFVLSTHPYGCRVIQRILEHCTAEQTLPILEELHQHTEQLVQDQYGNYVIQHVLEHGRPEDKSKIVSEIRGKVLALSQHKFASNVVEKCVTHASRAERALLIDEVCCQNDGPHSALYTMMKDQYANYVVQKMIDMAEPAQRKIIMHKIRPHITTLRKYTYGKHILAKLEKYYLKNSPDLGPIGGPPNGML

Results are given in words; binding and its absence hold for the method and conditions named. In cells and extracts the contact can be indirect. Some binding calls cover weakened binding; strength is not graded here.

Take “RNA-binding protein PUM2 (Pumilio2), endogenous, from aged mouse brain (from UniProt Q80U58 1-1066)”: the binding entry in assay [1] and in assay [2] was “binds” throughout.

(Values after EP3575401A1.)
